{
  "source": "patent US10934179B2",
  "about": "(priority 2015, dated 2021)",
  "origin": "cited, not measured here",
  "key": {"[1]": {"settings": "cited from earlier work"}, "[2]": {"settings": "cited from earlier work", "remark": "listed apart in the source"}},
  "note": "At least one structure is not confirmed: it was looked up by name or label, or the drawing left a doubt.",
  "data": [
    {"smiles": "[O][Cl+][O-]", "note": "[chlorine dioxide]", "values": [
      {"measurement": "oxidation capacity", "setting": "[1]", "result": 5},
      {"measurement": "oxidation reduction potential", "setting": "[1]", "result": 0.95, "unit": "V"},
      {"measurement": "Concentration dissolvable in water", "setting": "[2]", "result": "up to 10 grams per liter"}
    ]}
  ]
}
